The list shows a part of the results.
How the values were obtained:
Test in all cases: log2 fold change, soluble protein after heating vs DMSO (PISA); higher = thermal stabilisation; K562 lysate, 10 uM; active = over 0.2 and 3.5 SD of the protein, either way, in both replicates (recomputed)
[1] = compound: C1=CC=C(C=C1)[C@H](COC2=CC3=C(C=C2)NC(=O)N3)NC(=O)C4=CC=CN(C4=O)CC5=CC(=C(C=C5)F)F
Outline: (§1)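 Dounce homogenisation of K562 pellets in PBS pH 7.4 with 1 mM MgCl2 produced a crude extract, used at 1 mg/mL protein. Exposure to 10 μM compound lasted 30 min, and aliquots were then heated for 3 min across 48°C-58°C, pooled and brought to 0.5% NP-40 at 4°C. The supernatant after 21,000xg for 90 min was quantified by TMTpro 16plex LC-MS/MS with channel sums equalised. Duplicate values are given as log-two fold change in thermal stability relative to solvent controls.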

Protein sequences, listed by entry. Tags and fused reporters are not part of them. Lines headed by an entry give the natural chain unless they say otherwise; changes in a name come on top.
UniProt Q9BT40: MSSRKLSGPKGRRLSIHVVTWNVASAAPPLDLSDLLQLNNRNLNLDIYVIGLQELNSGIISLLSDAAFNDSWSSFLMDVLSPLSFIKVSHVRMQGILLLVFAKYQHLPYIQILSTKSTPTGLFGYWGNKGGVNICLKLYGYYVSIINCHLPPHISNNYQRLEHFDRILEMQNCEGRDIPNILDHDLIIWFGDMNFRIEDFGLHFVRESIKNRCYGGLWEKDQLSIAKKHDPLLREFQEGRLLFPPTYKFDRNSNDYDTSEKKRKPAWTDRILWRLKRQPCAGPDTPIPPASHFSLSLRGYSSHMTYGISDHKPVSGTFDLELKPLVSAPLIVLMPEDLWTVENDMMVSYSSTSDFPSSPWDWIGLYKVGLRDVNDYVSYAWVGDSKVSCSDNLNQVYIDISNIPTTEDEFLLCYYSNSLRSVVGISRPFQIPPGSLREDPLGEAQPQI
UniProt P01860, whole entry, looked up: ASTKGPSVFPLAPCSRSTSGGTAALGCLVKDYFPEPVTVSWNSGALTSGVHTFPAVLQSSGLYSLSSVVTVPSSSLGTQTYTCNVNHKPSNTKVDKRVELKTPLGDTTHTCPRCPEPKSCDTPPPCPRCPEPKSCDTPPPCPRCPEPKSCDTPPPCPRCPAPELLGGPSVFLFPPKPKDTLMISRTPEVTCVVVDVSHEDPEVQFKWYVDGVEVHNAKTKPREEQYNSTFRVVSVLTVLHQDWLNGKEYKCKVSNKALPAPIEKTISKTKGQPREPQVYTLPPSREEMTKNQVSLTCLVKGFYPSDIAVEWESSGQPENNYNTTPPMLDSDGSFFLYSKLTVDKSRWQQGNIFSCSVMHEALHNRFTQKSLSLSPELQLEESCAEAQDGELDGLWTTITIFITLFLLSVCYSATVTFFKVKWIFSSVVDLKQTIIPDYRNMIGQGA
UniProt O43464: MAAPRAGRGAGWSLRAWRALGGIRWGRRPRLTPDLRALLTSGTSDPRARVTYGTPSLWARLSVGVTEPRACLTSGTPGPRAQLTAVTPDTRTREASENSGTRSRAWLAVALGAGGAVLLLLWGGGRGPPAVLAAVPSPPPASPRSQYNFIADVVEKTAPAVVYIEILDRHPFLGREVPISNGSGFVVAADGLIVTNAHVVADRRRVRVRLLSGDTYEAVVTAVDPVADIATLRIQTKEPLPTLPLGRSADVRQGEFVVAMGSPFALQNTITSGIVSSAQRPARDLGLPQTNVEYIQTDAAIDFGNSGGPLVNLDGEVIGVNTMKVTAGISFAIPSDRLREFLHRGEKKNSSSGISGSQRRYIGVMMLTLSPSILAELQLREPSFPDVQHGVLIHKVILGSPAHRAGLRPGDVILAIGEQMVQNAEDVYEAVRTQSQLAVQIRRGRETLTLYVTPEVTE
UniProt Q6PI98, whole entry, looked up: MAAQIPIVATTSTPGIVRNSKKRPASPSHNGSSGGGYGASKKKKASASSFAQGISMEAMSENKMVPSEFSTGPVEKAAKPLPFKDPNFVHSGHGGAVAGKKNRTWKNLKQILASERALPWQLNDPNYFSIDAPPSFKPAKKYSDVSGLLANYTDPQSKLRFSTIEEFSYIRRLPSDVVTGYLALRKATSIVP
UniProt O43837: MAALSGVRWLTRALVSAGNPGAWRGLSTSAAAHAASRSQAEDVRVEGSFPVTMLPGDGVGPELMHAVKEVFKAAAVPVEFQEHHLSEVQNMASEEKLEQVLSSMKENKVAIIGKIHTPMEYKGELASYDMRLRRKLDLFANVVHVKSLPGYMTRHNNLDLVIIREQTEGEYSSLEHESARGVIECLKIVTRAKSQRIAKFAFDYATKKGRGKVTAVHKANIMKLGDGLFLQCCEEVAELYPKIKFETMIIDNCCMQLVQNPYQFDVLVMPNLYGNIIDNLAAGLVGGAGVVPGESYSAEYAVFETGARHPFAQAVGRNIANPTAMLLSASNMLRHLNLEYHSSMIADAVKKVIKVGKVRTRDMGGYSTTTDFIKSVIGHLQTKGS
UniProt Q9UK53: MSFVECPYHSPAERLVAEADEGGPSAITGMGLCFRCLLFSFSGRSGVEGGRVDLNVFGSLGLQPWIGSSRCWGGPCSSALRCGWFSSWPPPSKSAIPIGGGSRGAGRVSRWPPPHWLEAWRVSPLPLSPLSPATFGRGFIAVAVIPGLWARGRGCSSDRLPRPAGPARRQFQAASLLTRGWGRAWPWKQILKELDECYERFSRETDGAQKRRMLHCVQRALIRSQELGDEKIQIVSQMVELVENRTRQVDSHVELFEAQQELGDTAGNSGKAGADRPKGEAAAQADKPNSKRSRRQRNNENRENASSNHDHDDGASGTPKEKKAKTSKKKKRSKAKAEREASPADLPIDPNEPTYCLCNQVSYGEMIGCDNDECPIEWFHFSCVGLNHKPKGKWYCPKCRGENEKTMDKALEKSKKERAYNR
UniProt Q14773: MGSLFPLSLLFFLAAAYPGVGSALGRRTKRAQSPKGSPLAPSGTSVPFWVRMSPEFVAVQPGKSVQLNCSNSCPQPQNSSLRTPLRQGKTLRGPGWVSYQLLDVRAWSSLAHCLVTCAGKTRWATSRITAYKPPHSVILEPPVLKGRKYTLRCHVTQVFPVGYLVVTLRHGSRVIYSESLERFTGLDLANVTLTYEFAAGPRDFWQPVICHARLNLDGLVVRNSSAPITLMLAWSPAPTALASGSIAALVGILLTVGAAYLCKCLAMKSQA

[2] = compound: CC1=C(SC2=C1C(=N[C@H](C3=NN=C(N32)C)CC(=O)N)C4=CC=C(C=C4)Cl)C
Outline: as §1

[3] = compound: Cc1sc2c(c1C)C(c1ccc(Cl)cc1)=N[C@@H](CC(=O)OC(C)(C)C)c1nnc(C)n1-2
Outline: as §1

[4] = compound: c1ccc([C@@H]2C[C@H]2NC2CCNCC2)cc1
Outline: as §1

[5] = compound: CC1=C2C(=CC=C1)N=C(N(C2=O)C3=CC=CC=C3C)CN4C=NC5=C(N=CN=C54)N
Outline: as §1

Measured: log2 fold change

HUWE1, A0A087X1S3
inactive: [1] 0.151 | [2] -0.088 | [3] 0.055 | [4] -0.187

HSPA8 (UniProt E9PN89)
inactive: [1] 0.003 | [2] 0.044 | [3] -0.219 | [4] -0.393

INPP5K (UniProt Q9BT40)
inactive: [1] 0.034 | [2] -0.136 | [5] 0.14 | [3] 0.188 | [4] -0.092

IGHG3 (UniProt P01860)
inactive: [1] 1.15 | [2] -0.072 | [4] -0.281

Two successive records already listed:
HUWE1, A0A087X1S3
inactive: [1] 0.151 | [2] -0.088 | [3] 0.055 | [4] -0.187

HSPA8 (UniProt E9PN89)
inactive: [1] 0.003 | [2] 0.044 | [3] -0.219 | [4] -0.393

Next results follow.

HTRA2 (UniProt O43464)
inactive: [1] 0.065 | [2] 0.024 | [5] 0.03 | [3] -0.018 | [4] -0.023

INO80C isoform 4 (UniProt Q6PI98)
inactive: [1] -0.188 | [2] 0.034 | [3] -0.215

IDH3B (UniProt O43837)
inactive: [1] 0.002 | [2] -0.004 | [5] -0.034 | [3] 0.037 | [4] -0.062

ING1 (UniProt Q9UK53)
inactive: [1] 0.119 | [2] -0.207 | [3] -0.006 | [4] -0.04

ICAM4 (UniProt Q14773)
inactive: [1] -0.13 | [2] -0.169 | [3] 0.016 | [4] 0.03

HSPH1 (UniProt Q5TBM3)
inactive: [1] 0.209 | [2] 0.026
